No constants are given. Whether binding was seen depends on the method and setting. Binding seen in cells or lysates may run through a third protein. For some assays here: Binding can be weak; no strength is given.
T1: cytochrome c oxidase subunit II (Paracoccus denitrificans (endogenous in Pd1222 membranes)) (UniProt P08306)
T1 sequence: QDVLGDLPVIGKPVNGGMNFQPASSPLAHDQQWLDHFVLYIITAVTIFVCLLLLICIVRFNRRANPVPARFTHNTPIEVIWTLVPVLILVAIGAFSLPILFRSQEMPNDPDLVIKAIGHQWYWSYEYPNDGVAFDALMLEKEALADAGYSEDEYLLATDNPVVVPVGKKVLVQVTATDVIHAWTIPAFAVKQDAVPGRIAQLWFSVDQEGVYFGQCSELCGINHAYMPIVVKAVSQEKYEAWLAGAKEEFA


Legend:
[1] = molecular target: T1, cytochrome c oxidase subunit II (Paracoccus denitrificans (endogenous in Pd1222 membranes)); experiment: co-IP; membranes of untreated (non-crosslinked) cells (WT, FA2, MR31) solubilised with digitonin 8 g/g in 50 mM Tris/HCl pH 7.2; antiserum (anti-COX, anti-CtaG, anti-Surf1c, anti-CtaA) on protein A/G magnetic beads; washes 20 mM Tris/HCl pH 7.2, 50 mM NaCl, 0.08% digitonin; eluates immunoblotted
[2] = molecular target: Surf1c (Paracoccus denitrificans (endogenous in Pd1222 membranes)); experiment: as above

binding [1]	binding [2]	Molecule
binds		CtaG
	no binding	heme a synthase CtaA (enzyme, UniProt A1B8C2 1-381) MARRPVFQEVTETTPPGTTPSGGMIDAGHKGARGAIRLWLVVLFVMVAAMIALGGATRLTGSGLSITEWKPVTGAIPPMDAATWQAEFDKYRQIPQFELVNSDMDLASFKRIYWWEWSHRLLGRLVGLVWAAGFVFFLATRRIPTGWTPRLLLLGALGGAQGAIGWWMVHSGLSGEMVRVASYRLATHLGLAFAILGLIAWYVLALSRSEAALLRARRAGEAKLFSMTTGLMHLAFVQILLGALVAGIDAGRMYTGWPTMGGEWIPAEIWDATLGWRNFFENPALVQFIHRMTGYLLAVFAVVVFLRARRSPHPVTRGAYVAMLVALAVQVALGIMNVLHASPLPLALAHQIGAVALFTLILRARHHARYPYETSVRGTVR

Reference: paper PMC5249081
